From the supplement of paper PMC11438910
The other results are listed elsewhere or left out. Only a few entries rise above the background.

What was measured:
Test in all cases: fluorescence intensity of antibody binding to polysaccharide-coupled beads; higher = stronger binding
[1] = target: pneumococcal polysaccharide Pn22A
[2] = target: pneumococcal polysaccharide Pn22F
[3] = target: pneumococcal polysaccharide Pn23A
[4] = target: pneumococcal polysaccharide Pn23B
[5] = target: pneumococcal polysaccharide Pn23F
[6] = target: pneumococcal polysaccharide Pn24A
[7] = target: pneumococcal polysaccharide Pn24B
[8] = target: pneumococcal polysaccharide Pn24F
[9] = target: pneumococcal polysaccharide Pn25A
[10] = target: pneumococcal polysaccharide Pn25F
[11] = target: pneumococcal polysaccharide Pn27
[12] = target: pneumococcal polysaccharide Pn28A
[13] = target: pneumococcal polysaccharide Pn28F
[14] = target: pneumococcal polysaccharide Pn29
[15] = target: pneumococcal polysaccharide Pn3
[16] = target: pneumococcal polysaccharide Pn31
[17] = target: pneumococcal polysaccharide Pn32A
[18] = target: pneumococcal polysaccharide Pn32F
[19] = target: pneumococcal polysaccharide Pn33A
[20] = target: pneumococcal polysaccharide Pn33B
[21] = target: pneumococcal polysaccharide Pn33C
[22] = target: pneumococcal polysaccharide Pn33D
[23] = target: pneumococcal polysaccharide Pn33F
[24] = antibody concentration 81.7561 ng/mL
[25] = antibody concentration 437.17 ng/mL
[26] = antibody concentration 2337.65 ng/mL
[27] = antibody concentration 12500 ng/mL
[28] = antibody concentration 0.1 ng/mL
[29] = antibody concentration 0.534724 ng/mL
[30] = antibody concentration 2.8593 ng/mL
[31] = antibody concentration 15.2894 ng/mL

B1: 3S41.4 (protein)
chain 1: EVQLVESGGGLVQPGGSLRLSCATSGFTFSNYWMYWFRQAPGKGLEWVSTISGSSTNTYYSGSVKGRFTISRDNAKNTLYLQMNSLRAEDTAVYYCARRGTDSSHWYFDLWGPGTPITVSS
chain 2: EIVMTQSPATLSLSPGERATLSCRASQSVSSNLAWYQQKPGQGPRLLIYDASNRATGIPDRFGGSGSGTDFTLTISSLEPEDVGVYYCQQESNWPLTFGGGTKVEIK
**Q.** Which results are given for B1?
**A.** fluorescence intensity [1, 24]: 21.8 MFI; fluorescence intensity [1, 25]: 21.8 MFI; fluorescence intensity [1, 26]: 26.2 MFI; fluorescence intensity [1, 27]: 56.8 MFI; fluorescence intensity [2, 28]: 30.5 MFI; fluorescence intensity [2, 29]: 30 MFI; fluorescence intensity [2, 30]: 26.2 MFI; fluorescence intensity [2, 31]: 33.5 MFI; fluorescence intensity [2, 24]: 31.5 MFI; fluorescence intensity [2, 25]: 32 MFI; fluorescence intensity [2, 26]: 30 MFI; fluorescence intensity [2, 27]: 43 MFI; fluorescence intensity [3, 28]: 22.5 MFI; fluorescence intensity [3, 29]: 25.5 MFI; fluorescence intensity [3, 30]: 25 MFI; fluorescence intensity [3, 31]: 24.5 MFI; fluorescence intensity [3, 24]: 24 MFI; fluorescence intensity [3, 25]: 29.5 MFI; fluorescence intensity [3, 26]: 44.5 MFI; fluorescence intensity [3, 27]: 75 MFI; fluorescence intensity [4, 28]: 30 MFI; fluorescence intensity [4, 29]: 28 MFI; fluorescence intensity [4, 30]: 29 MFI; fluorescence intensity [4, 31]: 27 MFI; fluorescence intensity [4, 24]: 28 MFI; fluorescence intensity [4, 25]: 31.8 MFI; fluorescence intensity [4, 26]: 32.5 MFI; fluorescence intensity [4, 27]: 47.2 MFI; fluorescence intensity [5, 28]: 16.2 MFI; fluorescence intensity [5, 29]: 15.5 MFI; fluorescence intensity [5, 30]: 16.5 MFI; fluorescence intensity [5, 31]: 18 MFI; fluorescence intensity [5, 24]: 17.8 MFI; fluorescence intensity [5, 25]: 18.2 MFI; fluorescence intensity [5, 26]: 20.8 MFI; fluorescence intensity [5, 27]: 34.8 MFI; fluorescence intensity [6, 28]: 16 MFI; fluorescence intensity [6, 29]: 14 MFI; fluorescence intensity [6, 30]: 16 MFI; fluorescence intensity [6, 31]: 14.5 MFI; fluorescence intensity [6, 24]: 14.8 MFI; fluorescence intensity [6, 25]: 15 MFI; fluorescence intensity [6, 26]: 18 MFI; fluorescence intensity [6, 27]: 32 MFI; fluorescence intensity [7, 28]: 18.5 MFI; fluorescence intensity [7, 29]: 17.5 MFI; fluorescence intensity [7, 30]: 18 MFI; fluorescence intensity [7, 31]: 17.8 MFI; fluorescence intensity [7, 24]: 16.8 MFI; fluorescence intensity [7, 25]: 19 MFI; fluorescence intensity [7, 26]: 25.5 MFI; fluorescence intensity [7, 27]: 48.8 MFI; fluorescence intensity [8, 28]: 16 MFI; fluorescence intensity [8, 29]: 18 MFI; fluorescence intensity [8, 30]: 15.8 MFI; fluorescence intensity [8, 31]: 17.5 MFI; fluorescence intensity [8, 24]: 18.8 MFI; fluorescence intensity [8, 25]: 22.8 MFI; fluorescence intensity [8, 26]: 27.5 MFI; fluorescence intensity [8, 27]: 46.2 MFI; fluorescence intensity [9, 28]: 22.2 MFI; fluorescence intensity [9, 29]: 23 MFI; fluorescence intensity [9, 30]: 23 MFI; fluorescence intensity [9, 31]: 22.8 MFI; fluorescence intensity [9, 24]: 23.5 MFI; fluorescence intensity [9, 25]: 23.5 MFI; fluorescence intensity [9, 26]: 28.5 MFI; fluorescence intensity [9, 27]: 40 MFI; fluorescence intensity [10, 28]: 29.5 MFI; fluorescence intensity [10, 29]: 29 MFI; fluorescence intensity [10, 30]: 30 MFI; fluorescence intensity [10, 31]: 29.5 MFI; fluorescence intensity [10, 24]: 29 MFI; fluorescence intensity [10, 25]: 30 MFI; fluorescence intensity [10, 26]: 31 MFI; fluorescence intensity [10, 27]: 44.2 MFI; fluorescence intensity [11, 28]: 16 MFI; fluorescence intensity [11, 29]: 16 MFI; fluorescence intensity [11, 30]: 17 MFI; fluorescence intensity [11, 31]: 16.5 MFI; fluorescence intensity [11, 24]: 16.5 MFI; fluorescence intensity [11, 25]: 17.5 MFI; fluorescence intensity [11, 26]: 24.5 MFI; fluorescence intensity [11, 27]: 95.8 MFI; fluorescence intensity [12, 28]: 25.5 MFI; fluorescence intensity [12, 29]: 26.5 MFI; fluorescence intensity [12, 30]: 26 MFI; fluorescence intensity [12, 31]: 26 MFI; fluorescence intensity [12, 24]: 25.8 MFI; fluorescence intensity [12, 25]: 27.5 MFI; fluorescence intensity [12, 26]: 27.5 MFI; fluorescence intensity [12, 27]: 39 MFI; fluorescence intensity [13, 28]: 28.5 MFI; fluorescence intensity [13, 29]: 28.5 MFI; fluorescence intensity [13, 30]: 27.2 MFI; fluorescence intensity [13, 31]: 28.5 MFI; fluorescence intensity [13, 24]: 27.5 MFI; fluorescence intensity [13, 25]: 29.8 MFI; fluorescence intensity [13, 26]: 31.2 MFI; fluorescence intensity [13, 27]: 59.2 MFI; fluorescence intensity [14, 28]: 16.8 MFI; fluorescence intensity [14, 29]: 13.8 MFI; fluorescence intensity [14, 30]: 16 MFI; fluorescence intensity [14, 31]: 16 MFI; fluorescence intensity [14, 24]: 16 MFI; fluorescence intensity [14, 25]: 16.5 MFI; fluorescence intensity [14, 26]: 20 MFI; fluorescence intensity [14, 27]: 56 MFI; fluorescence intensity [15, 28]: 16.2 MFI; fluorescence intensity [15, 29]: 40.2 MFI; fluorescence intensity [15, 30]: 153 MFI; fluorescence intensity [15, 31]: 791 MFI; fluorescence intensity [15, 24]: 2640 MFI; fluorescence intensity [15, 25]: 9590 MFI; fluorescence intensity [15, 26]: 14600 MFI; fluorescence intensity [15, 27]: 29300 MFI; fluorescence intensity [16, 28]: 14 MFI; fluorescence intensity [16, 29]: 14 MFI; fluorescence intensity [16, 30]: 13 MFI; fluorescence intensity [16, 31]: 13.5 MFI; fluorescence intensity [16, 24]: 14 MFI; fluorescence intensity [16, 25]: 14 MFI; fluorescence intensity [16, 26]: 17.5 MFI; fluorescence intensity [16, 27]: 62.5 MFI; fluorescence intensity [17, 28]: 14.5 MFI; fluorescence intensity [17, 29]: 16.8 MFI; fluorescence intensity [17, 30]: 17.2 MFI; fluorescence intensity [17, 31]: 17.5 MFI; fluorescence intensity [17, 24]: 16.8 MFI; fluorescence intensity [17, 25]: 20 MFI; fluorescence intensity [17, 26]: 23.8 MFI; fluorescence intensity [17, 27]: 43.2 MFI; fluorescence intensity [18, 28]: 25 MFI; fluorescence intensity [18, 29]: 26 MFI; fluorescence intensity [18, 30]: 26.5 MFI; fluorescence intensity [18, 31]: 26 MFI; fluorescence intensity [18, 24]: 27.5 MFI; fluorescence intensity [18, 25]: 29.5 MFI; fluorescence intensity [18, 26]: 37.5 MFI; fluorescence intensity [18, 27]: 60.5 MFI; fluorescence intensity [19, 28]: 19.5 MFI; fluorescence intensity [19, 29]: 18 MFI; fluorescence intensity [19, 30]: 18 MFI; fluorescence intensity [19, 31]: 16.5 MFI; fluorescence intensity [19, 24]: 17.8 MFI; fluorescence intensity [19, 25]: 21 MFI; fluorescence intensity [19, 26]: 50.8 MFI; fluorescence intensity [19, 27]: 248 MFI; fluorescence intensity [20, 28]: 17.5 MFI; fluorescence intensity [20, 29]: 17 MFI; fluorescence intensity [20, 30]: 18 MFI; fluorescence intensity [20, 31]: 17 MFI; fluorescence intensity [20, 24]: 17.2 MFI; fluorescence intensity [20, 25]: 18.5 MFI; fluorescence intensity [20, 26]: 18.5 MFI; fluorescence intensity [20, 27]: 29.2 MFI; fluorescence intensity [21, 28]: 19.2 MFI; fluorescence intensity [21, 29]: 19.5 MFI; fluorescence intensity [21, 30]: 18 MFI; fluorescence intensity [21, 31]: 19.5 MFI; fluorescence intensity [21, 24]: 18.8 MFI; fluorescence intensity [21, 25]: 18.2 MFI; fluorescence intensity [21, 26]: 21.5 MFI; fluorescence intensity [21, 27]: 50.8 MFI; fluorescence intensity [22, 28]: 16 MFI; fluorescence intensity [22, 29]: 15.8 MFI; fluorescence intensity [22, 30]: 15.5 MFI; fluorescence intensity [22, 31]: 14.5 MFI; fluorescence intensity [22, 24]: 16 MFI; fluorescence intensity [22, 25]: 17 MFI; fluorescence intensity [22, 26]: 18.5 MFI; fluorescence intensity [22, 27]: 28.5 MFI; fluorescence intensity [23, 28]: 13 MFI; fluorescence intensity [23, 29]: 13 MFI; fluorescence intensity [23, 30]: 12.5 MFI; fluorescence intensity [23, 31]: 12.5 MFI; fluorescence intensity [23, 24]: 13.2 MFI; fluorescence intensity [23, 25]: 14.5 MFI; fluorescence intensity [23, 26]: 23.8 MFI; fluorescence intensity [23, 27]: 93.5 MFI
